Paper PMC7994200
Results are given in words; binding and its absence hold for the method and conditions named. In cells and extracts the contact can be indirect. Some results given as binding are weak or reduced against the parent protein; the word gives no strength.

Amino acid sequences for entries named in this document (tags omitted). Residues count along the entry.
UniProt Q9NZQ7, residues 19-290: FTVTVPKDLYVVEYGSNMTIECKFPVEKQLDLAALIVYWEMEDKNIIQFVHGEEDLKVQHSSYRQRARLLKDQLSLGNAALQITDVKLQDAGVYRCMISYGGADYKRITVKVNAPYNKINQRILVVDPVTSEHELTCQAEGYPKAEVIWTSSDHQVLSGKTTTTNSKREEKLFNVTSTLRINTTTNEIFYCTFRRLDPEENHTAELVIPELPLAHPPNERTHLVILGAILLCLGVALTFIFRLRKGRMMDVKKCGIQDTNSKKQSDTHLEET

Target: PD-L1 (human (endogenous in 786-0 and ACHN)) (UniProt Q9NZQ7)
Experiment: co-IP; 500 ug of total cell lysate with 20 ul rabbit anti-PD-L1 antibody at 4 C overnight, protein G dynabeads 2 h at 4 C, western blot; 786-0 cells (E.V or HuR-overexpressing) and ACHN cells (control or HuR knock-down)

B1: CKLF-like MARVEL transmembrane domain containing protein 6 (CMTM6) (protein, UniProt Q9NX76 1-183)
chain: MENGAVYSPTTEEDPGPARGPRSGLAAYFFMGRLPLLRRVLKGLQLLLSLLAFICEEVVSQCTLCGGLYFFEFVSCSAFLLSLLILIVYCTPFYERVDTTKVKSSDFYITLGTGCVFLLASIIFVSTHDRTSAEIAAIVFGFIASFMFLLDFITMLYEKRQESQLRKPENTTRAEALTEPLNA
binding: binds
